Measurements: PubChem BioAssay AID504467 (National Center for Advancing Translational Sciences (NCATS), 2011)
Among all 330,000 compounds or so, about 7,700 (2.3%) were called active. The shares of active, inactive and inconclusive entries below differ from those in the screen. The call rests on the fitted dose curve; in most records, active means well fitted inhibition curve with a large enough effect; inconclusive means small, poorly fitted or top-dose-only effect, or effect the other way; inactive means flat fitted curve, though single readings scatter. Where the call is inconclusive, the potency comes from a doubtful curve fit.

Test: qHTS screen for small molecules that inhibit ELG1-dependent DNA repair in human embryonic kidney (HEK293T) cells expressing luciferase-tagged ELG1; further: nearly all actives have a fitted effect of over 55% in size
Conditions: HEK293T ELG1-luciferase reporter, luminescence, 16 h, DNA damage induced by 5-fluorouridine; activity change, negative = inhibition: at 46.1 µM (top of the series)
Summary of the method: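 Quantitative HTS, concentration-response format. 2,000 cells/well co-treated with 5-fluorouridine and compound, 16 hr in 5% CO2 at 37 °C; ONE-Glo luminescence read after 30 min.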
On the % scale 0 is the no-effect control and ±100 the full control effect; potency means the concentration at half of the fitted maximal effect.

Structure (SMILES)	activity change, negative = inhibition	Potency
CCOc1ccc(N2C(=O)C3ON(C)C(c4ccc([N+](=O)[O-])cc4)C3C2=O)cc1 (configuration not stated)	inactive: -1.12%	
Cc1cc(C)n2nc(C(=O)NC3CCCc4ccccc43)nc2n1 (configuration not stated)		inconclusive: 25.9 µM [inhibitor, single point]
CCN1C(=O)C(O)(CC(=O)c2ccc(-n3cccc3)cc2)c2ccccc21 (configuration not stated)	inactive: -9.22%	
CC(C)(C=O)C1=CC(=O)c2ccccc2C1=O		inconclusive: 29.1 µM [inhibitor, single point]
CCOc1ccc(OCC)c(NC(=O)C2COc3ccccc3O2)c1 (configuration not stated)		inconclusive: 29.1 µM [inhibitor, single point]
CN(C)CCCNc1cc(C(C)(C)C)nc2c(-c3ccc(Cl)cc3)cnn12		inconclusive: 18.3 µM [activator, partial curve]
O=C(NCCc1nc2ccccc2[nH]1)/C(=C/c1ccco1)NC(=O)c1ccc(Br)o1		inconclusive: 29.1 µM [inhibitor, single point]
Cc1ccc(S(=O)(=O)Nc2c(C(=O)O)[nH]c3ccccc23)c(C)c1	inactive: -1.38%	
CCC(=O)Nc1nc(C)c(-c2csc(Nc3ccc(C(=O)O)cc3)n2)s1	inactive: 0.498%	
OC(CSc1ccccc1Cl)CN1CCN(c2ccc(F)cc2)CC1 (configuration not stated)	inactive: -1.56%	
CN(C)C(=O)c1ccc(COc2ccccc2Br)o1		inconclusive: 11.2 µM [activator, partial curve, poor fit]
O=C(c1ccc(-c2cccc(Cl)c2)o1)N1CCN(c2ccc([N+](=O)[O-])cc2)CC1		inconclusive: 16.4 µM [inhibitor, single point]
CCN=c1scc(C)n1/N=C/c1ccsc1		inconclusive: 16.4 µM [activator, partial curve]
COCCn1c(N)c(N(Cc2ccccc2)C(=O)c2ccc(-c3ccc(Cl)cc3)o2)c(=O)[nH]c1=O		inconclusive: 22.4 µM [inhibitor, single point]
CCCCOC(=O)c1ccc(Nc2ncnc3nc[nH]c23)cc1		inconclusive: 10.3 µM [activator, partial curve]
Cn1cc(C(=O)N/N=C/c2ccc(Br)c([N+](=O)[O-])c2)c2ccccc21		inconclusive: 29.1 µM [activator, single point]
CCOC(=O)c1c(C)[nH]c(C(=O)CSc2nc(C)cc(C)n2)c1C	inactive: -16.3%	
Cc1ccc(NC(=O)c2oc3ccccc3c2NC(=O)C2CC2)cc1	inactive: 0.606%	
Cc1ccc2oc3nc(C)c(C(=O)O)cc3c(=O)c2c1		inconclusive: 23.1 µM [activator, partial curve]
CC(=O)c1ccc(N2CCN(C(=O)Cc3cccs3)CC2)cc1		inconclusive: 29.1 µM [activator, single point]
COc1cc(NC(=O)c2cccc3c2C(=O)N(C2CCCCC2)C3)cc(OC)c1OC		active: 4.61 µM
Cc1ccc(Cc2nnc(SCC(=O)Nc3ccccc3)[nH]c2=O)cc1	inactive: 14.1%	
Cc1ccccc1NC(=O)Cc1nc(COC(=O)CCNS(=O)(=O)c2ccccc2)cs1	inactive: -2.79%	
CCOc1ccc(-c2nc(N)ncc2-c2ccc(OC)cc2)c(O)c1		inconclusive: 23.1 µM [inhibitor, single point]

Random excerpt: two entries already listed, in no set order.
Structure (SMILES)	activity change, negative = inhibition	Potency
COCCn1c(N)c(N(Cc2ccccc2)C(=O)c2ccc(-c3ccc(Cl)cc3)o2)c(=O)[nH]c1=O		inconclusive: 22.4 µM [inhibitor, single point]
Cc1ccc(NC(=O)c2oc3ccccc3c2NC(=O)C2CC2)cc1	inactive: 0.606%	

Further records.

Structure (SMILES)	activity change, negative = inhibition	Potency
Fc1ccc([C@@H]2CCNC[C@H]2COc2ccc3c(c2)OCO3)cc1		inconclusive: 20.6 µM [inhibitor, partial curve, poor fit]
COc1ccc(CCNC(=O)C2CC(=O)N(C3CCCCC3)C2)cc1OC (configuration not stated)	inactive: 12.8%	
CCOC(=O)c1ccc(-n2nc(C)cc2C)cc1	inactive: -2.51%	
COc1ccccc1NC(=O)Nc1ccnn1C1CCN(C(=O)c2cccnc2)CC1	inactive: 7.65%	
C=CCNCCCCOc1ccc(OCc2ccccc2)cc1		inconclusive: 11.6 µM [activator, partial curve]
CCN(CC)c1ccc(NC(=O)c2nc3nc(C)cc(C(F)F)n3n2)cc1		inconclusive: 16.4 µM [inhibitor, single point]
COc1ccc(CCNc2nc(N3CCCCC3)nc(N3CCCCC3)n2)cc1OC		active: 20.6 µM
CC(OC(=O)CCCCCN=C1NS(=O)(=O)c2ccccc21)C(=O)Nc1cc(Cl)cc(Cl)c1 (configuration not stated)	inactive: -16.5%	
CCOC(=O)C(C)n1cnc2c(nnn2-c2ccc(F)cc2)c1=O (configuration not stated)		inconclusive: 25.9 µM [activator, single point]
Nc1nc(CSc2nc3ccccc3s2)nc(N2CCOCC2)n1		inconclusive: 20.6 µM [inhibitor, single point]
Cc1sc2ncnc(NCC(c3ccco3)N(C)C)c2c1C (configuration not stated)		inconclusive: 14.6 µM [inhibitor, partial curve]
C(=N\n1cnnc1)/c1ccc(-c2ccccc2)cc1	inactive: 0.237%	
CCC(C(=O)Nc1sc(C(N)=O)c(C)c1C(=O)OC)c1ccccc1 (configuration not stated)		inconclusive: 5.17 µM [inhibitor, full curve]
COC(=O)[C@]1(CC(C)C)N[C@H](c2ccc(-c3cccc(Cl)c3)cc2)[C@@H]2C(=O)N(C)C(=O)[C@@H]21	inactive: -12.9%	
COc1ccc(Nc2oc(-c3ccco3)nc2S(=O)(=O)c2ccc(F)cc2)cc1		inconclusive: 29.1 µM [inhibitor, single point]
CN(C)/C=C1\C=C(c2ccccc2)OC1=O		inconclusive: 16.4 µM [activator, single point]
COc1ccc(C2CC(=O)N(CC(=O)NCC3CCCO3)c3ccccc3S2)cc1OC (configuration not stated)	inactive: 1.08%	
CCC(NC(=O)c1ccccc1O)c1ccccc1 (configuration not stated)	inactive: -10.4%	
CCN1CCN(c2ncnc3c2cnn3-c2ccc(Cl)cc2)CC1		inconclusive: 14.6 µM [activator, partial curve]
CCOC(=O)C1=C(c2ccccc2)NC(SC)=C(C#N)C1c1ccco1 (configuration not stated)	inactive: -15.5%	
Cc1ccc(NC(=O)c2ccoc2C)cc1C		inconclusive: 10.3 µM [activator, partial curve]
Cn1c(SCC(=O)C(C)(C)C)nnc1-c1ccncc1		inconclusive: 20.6 µM [activator, partial curve, poor fit]
O=C1COc2ccc(S(=O)(=O)CCC(=O)N3CCN(c4cccc(C(F)(F)F)c4)CC3)cc2N1		inconclusive: 23.1 µM [inhibitor, partial curve, poor fit]
COc1ccc2nc3oc(C(=O)NC4CCN(Cc5ccccc5)CC4)cc3cc2c1		inconclusive: 29.1 µM [activator, single point]

Record cards, from the list above:
CN(C)C(=O)c1ccc(COc2ccccc2Br)o1 as listed: Potency: inconclusive: 11.2 µM [activator, partial curve, poor fit]
Cc1ccccc1NC(=O)Cc1nc(COC(=O)CCNS(=O)(=O)c2ccccc2)cs1 as listed: activity change, negative = inhibition: inactive: -2.79%
CCOc1ccc(OCC)c(NC(=O)C2COc3ccccc3O2)c1 (configuration not stated) as listed: Potency: inconclusive: 29.1 µM [inhibitor, single point]

Additional records follow.

Structure (SMILES)	activity change, negative = inhibition	Potency
Cc1cc(C(=O)COc2ccc(F)cc2Br)c(C)n1C		inconclusive: 23.1 µM [activator, single point]
Cc1ccc(NC(=S)N2CCN(S(=O)(=O)c3c(F)cccc3F)CC2)cc1C		inconclusive: 18.3 µM [inhibitor, partial curve, poor fit]
COc1ccc(C=NNC(=O)c2ccccc2OCc2ccc(F)cc2)c(OC)c1		inconclusive: 13 µM [inhibitor, single point]
CCCNC(=O)NC1CCCc2ccccc21 (configuration not stated)		inconclusive: 32.6 µM [activator, partial curve, poor fit]
CC1CCCCN1C(=O)c1cc2nc(-c3ccccc3)cc(-c3ccccc3)n2n1 (configuration not stated)		active: 16.4 µM
CC(=O)Nc1ccc(Nc2cc(N3CCOCC3)c3nonc3c2[N+](=O)[O-])cc1		inconclusive: 29.1 µM [activator, single point]
CN(C)C(=O)c1cc(C(=O)c2ccccc2)c[nH]1		inconclusive: 16.4 µM [activator, partial curve]
CCOC(=O)/C=C/C(=O)Nc1ccc(S(=O)(=O)Nc2c(C)cc(C)cc2C)cc1		inconclusive: 18.4 µM [activator, single point]
COc1ccc(CCN(Cc2ccccn2)C(=S)Nc2ccccc2F)cc1OC		inconclusive: 13 µM [inhibitor, partial curve, poor fit]
Cc1c(N/C(=N/S(=O)(=O)c2ccccc2)c2ccc(Cl)cc2)c(=O)n(-c2ccccc2)n1C	inactive: 4.28%	
CCOC(=O)c1ccc(NC(=O)CC2Sc3ncnn3C2=O)cc1 (configuration not stated)	inactive: 6.01%	
CC(C)Oc1ccccc1NC(=O)CSc1nc2ccccc2c(=O)n1C		inconclusive: 23.1 µM [inhibitor, single point]
COc1ccc(/C(C)=N/NC(=O)c2cccc(S(=O)(=O)N3CCCC3)c2)c(O)c1		inconclusive: 9.2 µM [inhibitor, partial curve, poor fit]
Cc1ccccc1NC(=O)CSc1nnc(Cc2ccccc2)c(=O)n1N	inactive: 3.48%	
COc1ccc(CC(NC(C)=O)C(=O)NC2CCN(C(=O)c3ccc(OC)c(OC)c3)CC2)cc1OC (configuration not stated)	inactive: 2.36%	
CCCNC(=O)C(=O)NCCC1=CCCCC1		inconclusive: 18.4 µM [activator, single point]
O=C(COC(=O)C1CC1)NC(=O)c1ccccc1	inactive: 6.95%	
COc1ccccc1N1CCN(C(=O)c2cccc3c(=O)c(C)c(-c4ccccc4)oc23)CC1		active: 20.6 µM
CCOC(=O)CCN(c1ccccc1)S(=O)(=O)c1ccc(-c2ccc(=O)[nH]n2)s1	inactive: 19.2%	
CCN(CC)S(=O)(=O)c1cccc(C(=O)OC2CCOC2=O)c1 (configuration not stated)		inconclusive: 32.6 µM [activator, partial curve, poor fit]
C#CCn1c(=NC(=O)c2ccco2)sc2cccc(Cl)c21	inactive: 22.4%	
CCN1N=C(c2ccccc2)Cn2c1nc1ccccc12	inactive: -6.34%	
CN(c1ccccc1C(=O)N1CCN(Cc2ccc3c(c2)OCO3)CC1)S(C)(=O)=O	inactive: -2.73%	
COC(=O)c1cc2oc3ccccc3c2n1CC(=O)Nc1ccccc1OC		inconclusive: 18.4 µM [activator, partial curve, poor fit]
